Data taken from the supplement of paper PMC7646827.
Many values rest on one well or one pass, so single values are uncertain.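 All cells are established human bladder cancer lines, one derived from a patient-derived xenograft. A luminescent ATP assay measured viability as percent inhibition relative to vehicle across seven dilutions. The paper rates scores above 59 very active, 30–59 active, 21–29 semi-active, 9–20 low active, below 9 inactive.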

Tests used:
Assay in all cases: drug sensitivity score DSS3 (score 0-100); higher = more sensitive; extreme values may be limits of the assay
Conditions in all cases: culture: 3D, ultra-low attachment; treatment time: 5 days
[1] = system: UM-UC-3
[2] = system: TCCSUP
[3] = system: 5637
[4] = system: UM-UC-17
[5] = system: J82
[6] = system: SW780
[7] = system: UM-UC-18
[8] = system: UM-UC-5
[9] = system: SCaBER
[10] = system: UM-UC-12
[11] = system: UM-UC-15
[12] = system: UM-UC-14
[13] = system: UM-UC-1
[14] = system: BC8149
[15] = system: T-24
[16] = system: UM-UC-9
[17] = system: UM-UC-6

Compound	drug sensitivity score DSS3 [1]	drug sensitivity score DSS3 [2]	drug sensitivity score DSS3 [3]	drug sensitivity score DSS3 [4]	drug sensitivity score DSS3 [5]	drug sensitivity score DSS3 [6]	drug sensitivity score DSS3 [7]	drug sensitivity score DSS3 [8]	drug sensitivity score DSS3 [9]	drug sensitivity score DSS3 [10]	drug sensitivity score DSS3 [11]	drug sensitivity score DSS3 [12]	drug sensitivity score DSS3 [13]	drug sensitivity score DSS3 [14]	drug sensitivity score DSS3 [15]	drug sensitivity score DSS3 [16]	drug sensitivity score DSS3 [17]
CCc1cnn2c(NCc3ccc[n+]([O-])c3)cc(N3CCCC[C@H]3CCO)nc12 [Dinaciclib] (max dose 10000 nM)	31.7	59.4	58	58.3	32.3	45.5	56.5	52.6	73.1	46.5	45.1	41.8	52.8	73	40.8	18.4	54.1
C=CC(=O)Nc1cccc(Nc2nc(Nc3ccc(Oc4ccnc(C(=O)NC)c4)cc3)ncc2F)c1 [CNX-774] (max dose 10000 nM)	11.5	1.07	1.15	0.226	0	0	0	0	3.56	1.1	0	0.239	22.9	0.848	0	0	0
Nc1nc(Nc2ccc3c(c2)CC[C@@H](N2CCCC2)CC3)nn1-c1cc2c(nn1)-c1ccccc1CCC2 [Bemcentinib] (max dose 10000 nM)	5.1e-07	0	0	0	0	0	0	0	0	0	1.34	0	0	0	0	0	0
c1cc(CN2CCCNCCNCCCNCC2)ccc1CN1CCCNCCNCCCNCC1 [Plerixafor (AMD3100), Plerixafor 8HCl (AMD3100 8HCl)] (max dose 10000 nM)	0	0.035	0.862	0.0615	0	0	0	0	0	0	0	0	0	0	0	0	0
CN1CCC(NC(=O)c2cc(-c3c(O)cc(O)cc3Oc3ccc([N+](=O)[O-])cc3)on2)CC1 [NMS-E973] (max dose 10000 nM)	29.4	18.7	10.5	6.33	0	0	14.3	8.92	13.1	13.4	12.9	0.559	9.86	26.5	26.1	9.86	0
C[C@@H](O[C@H]1OCCN(Cc2n[nH]c(=O)[nH]2)[C@H]1c1ccc(F)cc1)c1cc(C(F)(F)F)cc(C(F)(F)F)c1 [Aprepitant] (max dose 10000 nM)	0.0122	1.91	0	0.0412	0	0	0	0	0.0571	0.388	1.85	0	0	0	0	0	0
O=C1NC(=O)C(c2cnc3ccccn23)=C1c1cn2c3c(cc(F)cc13)CN(C(=O)N1CCCCC1)CC2 (max dose 10000 nM)	0	34.8	39.3	0	0	0	2.46	0	0	38.9	0	4.13	0.508	0	0.0827	0	22.4
COc1cc([C@@H]2c3cc4c(cc3[C@@H](O[C@@H]3O[C@@H]5CO[C@@H](C)O[C@H]5[C@H](O)[C@H]3O)[C@H]3COC(=O)[C@H]23)OCO4)cc(OC)c1O [Etoposide] (max dose 10000 nM)	2	11.7	15	1.53	2.67	0	11.4	1.48	10.8	0	0	15.9	2.94	12.8	0	0	5.19
CNC(=O)c1ccc(N2C(=S)N(c3ccc(C#N)c(C(F)(F)F)c3)C(=O)C2(C)C)cc1F [Enzalutamide (MDV3100)] (max dose 10000 nM)	0	1.1	0	0	0	0	0	0	1.89	0	0	0	0	0	0	0	0
N#Cc1c(O)c2c(-c3ccc(-c4ccccc4O)cc3)csc2[nH]c1=O (max dose 10000 nM)	1.86	4.51	10.8	2.38	0	0.108	12.3	0.136	0.647	1.48	0	3.23	0	5.44	0.353	0	0
Cc1cc(C)cc(Oc2ccc(CNC(=O)[C@H](C)N)cc2C)c1 [SGC2085] (max dose 10000 nM)	0	0	0	0	0	0	0	0	0	0	0.335	0	0	0	0	0	0

Individual results from the entries so far:
Under drug sensitivity score DSS3 [3], `CCc1cnn2c(NCc3ccc[n+]([O-])c3)cc(N3CCCC[C@H]3CCO)nc12` [Dinaciclib] (max dose 10000 nM) is entered as 58
Under drug sensitivity score DSS3 [8], `Nc1nc(Nc2ccc3c(c2)CC[C@@H](N2CCCC2)CC3)nn1-c1cc2c(nn1)-c1ccccc1CCC2` [Bemcentinib] (max dose 10000 nM) is entered as 0
